Source: PMC7819943, “Rice protein-binding microarrays: a tool to detect cis-acting elements near promoter regions in rice”
The other results are listed elsewhere or left out.

Each sequence was assayed against T1, OsSMF1 (Oryza sativa, UniProt Q6ZLB0 1-436) (assay: protein-binding microarray (RPBM); PBS, 2% BSA, 51.3 ng/ul salmon testes DNA, 50 uM zinc acetate, 200 nM TF, 25 C, 1 h; high values mean tight binding). Conditions: protein: recombinant; tags: N-terminal polyhistidine and DsRed monomer fusion (pET32a); chain copies: 2; label: CyDye5-dUTP incorporated in the synthesized complementary strand; 3' TTTTT single-stranded linker to array surface; dsDNA, one strand shown.
T1 sequence: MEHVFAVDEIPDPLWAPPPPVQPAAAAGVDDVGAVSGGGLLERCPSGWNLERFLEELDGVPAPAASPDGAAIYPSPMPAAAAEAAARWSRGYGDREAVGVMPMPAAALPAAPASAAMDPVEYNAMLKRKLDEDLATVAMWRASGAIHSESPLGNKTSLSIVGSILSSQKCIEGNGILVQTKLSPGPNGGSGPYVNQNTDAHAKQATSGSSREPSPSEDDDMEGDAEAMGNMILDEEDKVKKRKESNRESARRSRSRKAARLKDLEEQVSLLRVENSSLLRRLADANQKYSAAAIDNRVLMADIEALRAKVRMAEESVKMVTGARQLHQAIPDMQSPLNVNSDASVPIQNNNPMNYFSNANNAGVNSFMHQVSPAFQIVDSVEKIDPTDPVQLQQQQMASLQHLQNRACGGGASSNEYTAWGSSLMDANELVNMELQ
Outline: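 Transcription factors, each fused N-terminally to a polyhistidine tag and DsRed, were expressed in E. coli BL21-CodonPlus and purified on Ni–NTA. A custom Agilent array was made double-stranded by primer extension with Cy5-dUTP and blocked with 2% BSA. It was incubated with 200 nM protein in PBS, 2% BSA, salmon testes DNA and 50 µM zinc acetate at 25 °C for 1 h, then washed. The binding signal is per-feature fluorescence intensity (arbitrary units) read on an Axon 4000B scanner.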

Sequence | binding signal
ACCCACATGTCATTGACTCATATGGGTCATACATGTCATTCGGAGTCACCTAGTGCAG | 9460 fluorescence intensity (a.u.)
ACGGATCACGTACACATGCGTACGTGTCTCATCCCCGGACCGGAGTCACCTAGTGCAG | 9710 fluorescence intensity (a.u.)
GCCGCTTCTTCCGCGCATGCGTCGTGATCTCACGTCCTCTCGGAGTCACCTAGTGCAG | 3680 fluorescence intensity (a.u.)
TTGTCTAACGTGGTGCACGCGTGGCAATCCAGTTAGCATTCGGAGTCACCTAGTGCAG | 10500 fluorescence intensity (a.u.)
GGATCCTTTGACATGTAGATGCCACCGTGGCATGCCACGTCGGAGTCACCTAGTGCAG | 13900 fluorescence intensity (a.u.)
CGCTGGGCGATGCCACGTCGGATAGGAACAGTGCGCGGAGCGGAGTCACCTAGTGCAG | 13300 fluorescence intensity (a.u.)
TAGTTACTTAGTGCATGGGCATCCCACGTCTGTGTGCATGCGGAGTCACCTAGTGCAG | 4750 fluorescence intensity (a.u.)
CGTTGGCGTCCACCACGGCCACCGCCACGCCGCTCGTGTTCGGAGTCACCTAGTGCAG | 4420 fluorescence intensity (a.u.)
GTTCGCCTCTGCCATTCTCCCCTGATGGCAGAGGATGCGACGGAGTCACCTAGTGCAG | 3150 fluorescence intensity (a.u.)
AGCCGGTGAGCCGCTCATCGGCGGTCGTACGTCATCGCTACGGAGTCACCTAGTGCAG | 6340 fluorescence intensity (a.u.)
ATTGATATGTAGGGTCGATCGCGTGCTTTCAGTCTAGCTGCGGAGTCACCTAGTGCAG | 3180 fluorescence intensity (a.u.)
CCACTATAATGCCACGTCACTAAATCCCATCCAACATCAACGGAGTCACCTAGTGCAG | 16400 fluorescence intensity (a.u.)
ACGTTCTTGAGTGACATGTTATGTACACATATATTCCTTTCGGAGTCACCTAGTGCAG | 3530 fluorescence intensity (a.u.)
GGCGGTGATGCTTGTCTTCGTCATCGTCCACATCTCGTTGCGGAGTCACCTAGTGCAG | 9550 fluorescence intensity (a.u.)
AAGGAGGAGAAGCAGCAAACGCGGCCGCACCCAGCGTCCACGGAGTCACCTAGTGCAG | 3850 fluorescence intensity (a.u.)
TGGCCCATCCATCCATCTATCGGCCCAATATGACTCAGCTCGGAGTCACCTAGTGCAG | 6870 fluorescence intensity (a.u.)
ATTGTTAGCCGTGAGCCCGTGACTCAACTTATATCGAAGCCGGAGTCACCTAGTGCAG | 5480 fluorescence intensity (a.u.)
GTGGGGAGGGTAAAAGAAACGTACCAACACACATTTATAGCGGAGTCACCTAGTGCAG | 26700 fluorescence intensity (a.u.)
TACTGATAGCCTTGATGTCATGCATTGAAAATAATTTCTACGGAGTCACCTAGTGCAG | 4330 fluorescence intensity (a.u.)
TTATTCTCCGAAGAGGGTTTGTTTGGATGACTCACCTGCACGGAGTCACCTAGTGCAG | 12600 fluorescence intensity (a.u.)
ACGCTACGCTGGACACCACGTGGCCACGCCAAGCTTAGCACGGAGTCACCTAGTGCAG | 4820 fluorescence intensity (a.u.)
ATCCCATCGCGCCACGCGAGCTCGATCGATCGAGGTGTGTCGGAGTCACCTAGTGCAG | 3490 fluorescence intensity (a.u.)
ATTTCGAAAATGCACAAAATGGCCAAAATGACAAAGTGGTCGGAGTCACCTAGTGCAG | 3350 fluorescence intensity (a.u.)
CCAAATGTCCATGGTTGATCACGTGTGAACACGGTTTGTTCGGAGTCACCTAGTGCAG | 3160 fluorescence intensity (a.u.)
ACTTGTGCTGATCCATTCCATGTCAATGGAGTTCATGGAGCGGAGTCACCTAGTGCAG | 4090 fluorescence intensity (a.u.)
ATTAACGACACACGTGTTGAAATCTTATTCTACGAGCAGCCGGAGTCACCTAGTGCAG | 4680 fluorescence intensity (a.u.)
CTCCTCTTCCCTTCCCTTCTCTCTTTTCTTTTCTCTCACACGGAGTCACCTAGTGCAG | 28600 fluorescence intensity (a.u.)

Sequence | binding signal
GCCGCCGACGACGACGAGTGGTGGAGAGGAGGAGACGAAGCGGAGTCACCTAGTGCAG | 37000 fluorescence intensity (a.u.)
TTATAACCTGAAACGGATAGAGTATCAACTACGTCATGCACGGAGTCACCTAGTGCAG | 3280 fluorescence intensity (a.u.)
TATATGCCACGTGAGCTAATAAGATTTTAATACTACCTTGCGGAGTCACCTAGTGCAG | 7910 fluorescence intensity (a.u.)
GCCCTCTTCGCGGCGTTCGACGCCGCCGTCGAGATCTCCTCGGAGTCACCTAGTGCAG | 25200 fluorescence intensity (a.u.)
TTCCCAAAAGGAGGCCCAATGAGAACTTGTATAGTCCTATCGGAGTCACCTAGTGCAG | 19500 fluorescence intensity (a.u.)
CTAATTGGCAAATTAAACAAAGAAGAAGAGGAAAGGAAGGCGGAGTCACCTAGTGCAG | 32300 fluorescence intensity (a.u.)
ACGACTACAACTACAAGACGATCTTTCCAAAGGAAGACCGCGGAGTCACCTAGTGCAG | 3300 fluorescence intensity (a.u.)
AATTCTCCTCAATAATTAATGGTTATTAGTAAGACACAGACGGAGTCACCTAGTGCAG | 30000 fluorescence intensity (a.u.)
CCGCGCCTGATCCGTCGGTGGTGGTGGCACGTGGGGCTTGCGGAGTCACCTAGTGCAG | 4570 fluorescence intensity (a.u.)
CACCCACGAGCACACCCGTACCAGGGGACGAGGAGGTGGACGGAGTCACCTAGTGCAG | 38300 fluorescence intensity (a.u.)
CACAATATTCCCTTCCACGCCACCAACTTTTCCACCCTTCCGGAGTCACCTAGTGCAG | 3910 fluorescence intensity (a.u.)
TGATTGCAACAGGTGGGCTGGTTTTGCGTCATTTGACCAGCGGAGTCACCTAGTGCAG | 51900 fluorescence intensity (a.u.)
CTTGGGCATGATGGTGACGCGCTTGGCGTGGATGGCGCACCGGAGTCACCTAGTGCAG | 4090 ± 122 fluorescence intensity (a.u.)
GCCACGCCTCTCGCGCCAAGCCACCCTCCTCCACCGGACGCGGAGTCACCTAGTGCAG | 3850 fluorescence intensity (a.u.)
GCTCTGGATGGCTGAACCACCTCATGGTCAGAGTTGGGTCCGGAGTCACCTAGTGCAG | 4340 fluorescence intensity (a.u.)
TCCGGCTTCCGATTCTCCCTGACGCCACTCCCTTCACCACCGGAGTCACCTAGTGCAG | 3530 fluorescence intensity (a.u.)
AAGGTGTCTAATATGTAGGGGTGTCACCAGGAAGTGAACTCGGAGTCACCTAGTGCAG | 3360 fluorescence intensity (a.u.)
TGACCCTATTATGTCATACCGTGTATATATTCGAATACTTCGGAGTCACCTAGTGCAG | 3590 fluorescence intensity (a.u.)
TCGAGTTCCGGTGCTTGTTGACGTGATTTGGGTTTTGGCCCGGAGTCACCTAGTGCAG | 4880 fluorescence intensity (a.u.)
AGTCATATATAAACAGGTCGTACGTGTTGCCGTGTTCATGCGGAGTCACCTAGTGCAG | 5640 fluorescence intensity (a.u.)
CTGAAAGACGTAATGTGTGTATAACAGGTGGCACCATATACGGAGTCACCTAGTGCAG | 3350 fluorescence intensity (a.u.)
AAAATATATTACTACCTCCGTTTCATATTATAAGACTTTCCGGAGTCACCTAGTGCAG | 65400 fluorescence intensity (a.u.)
ATGGAATGGCGAGTATTTATCCTCAATCCCAGAGATGGCACGGAGTCACCTAGTGCAG | 38400 fluorescence intensity (a.u.)
TGCCACGCACGATGACAGTGACATCTTGCTAACATCCTCCCGGAGTCACCTAGTGCAG | 4640 fluorescence intensity (a.u.)
TCTAATGCCTCGTTGCTGCCACGTTGAACAAAGACCAGGTCGGAGTCACCTAGTGCAG | 6510 fluorescence intensity (a.u.)
CCTTTCAGAATCCTACGTGGTGCTGATGTGGCATGCCACACGGAGTCACCTAGTGCAG | 36400 fluorescence intensity (a.u.)
CATCACCTGCACCCACCACATCACCTCATTGCGAGCCAGCCGGAGTCACCTAGTGCAG | 3410 fluorescence intensity (a.u.)

Single values from the results shown:
For binding signal, CGCTGGGCGATGCCACGTCGGATAGGAACAGTGCGCGGAGCGGAGTCACCTAGTGCAG has the entry 13300 fluorescence intensity (a.u.)
For binding signal, TCGAGTTCCGGTGCTTGTTGACGTGATTTGGGTTTTGGCCCGGAGTCACCTAGTGCAG has the entry 4880 fluorescence intensity (a.u.)
For binding signal, TAGTTACTTAGTGCATGGGCATCCCACGTCTGTGTGCATGCGGAGTCACCTAGTGCAG has the entry 4750 fluorescence intensity (a.u.)
